Read-outs that look alike come from different tables or passages of the source. Results are given in words; binding and its absence hold for the method and conditions named. Some results given as binding are weak or reduced against the parent protein; the word gives no strength. For some assays here: Sequences can lack the tags named with a protein.

Protein sequences, listed by entry. Tags and fused reporters are not part of them. Lines headed by an entry give the natural chain unless they say otherwise; changes in a name come on top.
UniProt P17301: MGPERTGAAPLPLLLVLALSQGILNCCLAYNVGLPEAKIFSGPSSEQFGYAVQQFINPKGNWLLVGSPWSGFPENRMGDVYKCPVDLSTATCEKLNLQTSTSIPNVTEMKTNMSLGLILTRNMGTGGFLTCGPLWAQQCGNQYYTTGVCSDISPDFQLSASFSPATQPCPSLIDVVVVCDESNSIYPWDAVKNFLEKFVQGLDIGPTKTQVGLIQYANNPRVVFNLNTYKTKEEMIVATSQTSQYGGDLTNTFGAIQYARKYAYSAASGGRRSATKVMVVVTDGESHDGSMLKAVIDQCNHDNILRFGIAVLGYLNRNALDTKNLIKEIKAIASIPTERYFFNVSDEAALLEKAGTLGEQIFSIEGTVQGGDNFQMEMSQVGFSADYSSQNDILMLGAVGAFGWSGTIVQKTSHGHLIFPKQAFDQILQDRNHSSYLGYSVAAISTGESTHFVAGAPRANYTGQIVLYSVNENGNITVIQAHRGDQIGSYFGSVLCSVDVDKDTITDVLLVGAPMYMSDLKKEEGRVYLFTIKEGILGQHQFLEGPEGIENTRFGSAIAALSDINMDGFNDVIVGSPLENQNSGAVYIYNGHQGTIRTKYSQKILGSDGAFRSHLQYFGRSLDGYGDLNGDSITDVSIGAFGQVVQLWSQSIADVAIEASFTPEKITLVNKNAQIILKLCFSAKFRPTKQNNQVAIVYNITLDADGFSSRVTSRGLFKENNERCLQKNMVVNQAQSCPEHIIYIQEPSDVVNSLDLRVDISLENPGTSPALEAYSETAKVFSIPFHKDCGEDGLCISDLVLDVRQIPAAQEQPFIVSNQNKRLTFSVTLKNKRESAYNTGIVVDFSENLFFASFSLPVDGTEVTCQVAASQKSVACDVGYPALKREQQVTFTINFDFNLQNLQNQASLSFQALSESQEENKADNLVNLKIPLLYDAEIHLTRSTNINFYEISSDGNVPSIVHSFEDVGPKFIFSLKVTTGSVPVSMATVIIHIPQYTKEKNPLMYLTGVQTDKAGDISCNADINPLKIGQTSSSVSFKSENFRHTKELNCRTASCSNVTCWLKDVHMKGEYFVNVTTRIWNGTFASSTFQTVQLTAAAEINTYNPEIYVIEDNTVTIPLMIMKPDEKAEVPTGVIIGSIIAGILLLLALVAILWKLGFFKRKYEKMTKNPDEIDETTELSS
UniProt P05556: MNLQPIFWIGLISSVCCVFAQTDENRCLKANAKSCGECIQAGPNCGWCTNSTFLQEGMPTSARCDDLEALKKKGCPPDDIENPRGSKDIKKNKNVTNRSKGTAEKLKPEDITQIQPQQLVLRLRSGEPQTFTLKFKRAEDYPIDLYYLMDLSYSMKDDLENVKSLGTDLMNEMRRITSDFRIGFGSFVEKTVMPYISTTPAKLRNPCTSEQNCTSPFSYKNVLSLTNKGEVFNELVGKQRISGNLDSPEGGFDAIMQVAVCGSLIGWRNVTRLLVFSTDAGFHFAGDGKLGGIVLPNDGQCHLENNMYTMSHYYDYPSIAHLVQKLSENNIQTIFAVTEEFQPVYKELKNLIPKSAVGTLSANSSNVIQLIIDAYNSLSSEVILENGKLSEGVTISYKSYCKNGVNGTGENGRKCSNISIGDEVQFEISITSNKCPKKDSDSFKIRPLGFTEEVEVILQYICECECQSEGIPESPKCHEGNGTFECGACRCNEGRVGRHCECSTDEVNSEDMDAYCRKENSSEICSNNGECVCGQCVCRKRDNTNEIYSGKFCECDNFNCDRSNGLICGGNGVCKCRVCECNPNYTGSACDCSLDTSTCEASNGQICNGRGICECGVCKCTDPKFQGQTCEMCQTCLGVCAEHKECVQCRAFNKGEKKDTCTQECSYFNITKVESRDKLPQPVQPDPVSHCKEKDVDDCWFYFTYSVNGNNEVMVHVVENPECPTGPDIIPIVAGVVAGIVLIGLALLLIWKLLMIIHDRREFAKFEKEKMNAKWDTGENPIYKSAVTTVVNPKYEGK

The record followed here is article doi:10.1101/2020.05.08.084889 (bioRxiv, 2020).

Holding throughout (experiment): single molecule AFM force measurement
Test [1] has as its target T1, Recombinant human CAR-FC (human), P78310.
T1 chain: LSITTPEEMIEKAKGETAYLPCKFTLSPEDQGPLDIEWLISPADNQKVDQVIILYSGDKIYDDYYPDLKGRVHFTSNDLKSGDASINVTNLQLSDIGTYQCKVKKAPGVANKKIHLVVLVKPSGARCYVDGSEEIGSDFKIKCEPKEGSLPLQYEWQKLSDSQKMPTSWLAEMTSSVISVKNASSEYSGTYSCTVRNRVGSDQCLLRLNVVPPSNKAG
The settings on record: remark: other sources report otherwise.

Test [2] has as its target T2, Desmocollin-3 complete extracellular region, biotinylated (Dsc3-ATH) (human) (UniProt Q14574).
T2 sequence (chain, biotin on the Avi-tag (BirA enzyme)): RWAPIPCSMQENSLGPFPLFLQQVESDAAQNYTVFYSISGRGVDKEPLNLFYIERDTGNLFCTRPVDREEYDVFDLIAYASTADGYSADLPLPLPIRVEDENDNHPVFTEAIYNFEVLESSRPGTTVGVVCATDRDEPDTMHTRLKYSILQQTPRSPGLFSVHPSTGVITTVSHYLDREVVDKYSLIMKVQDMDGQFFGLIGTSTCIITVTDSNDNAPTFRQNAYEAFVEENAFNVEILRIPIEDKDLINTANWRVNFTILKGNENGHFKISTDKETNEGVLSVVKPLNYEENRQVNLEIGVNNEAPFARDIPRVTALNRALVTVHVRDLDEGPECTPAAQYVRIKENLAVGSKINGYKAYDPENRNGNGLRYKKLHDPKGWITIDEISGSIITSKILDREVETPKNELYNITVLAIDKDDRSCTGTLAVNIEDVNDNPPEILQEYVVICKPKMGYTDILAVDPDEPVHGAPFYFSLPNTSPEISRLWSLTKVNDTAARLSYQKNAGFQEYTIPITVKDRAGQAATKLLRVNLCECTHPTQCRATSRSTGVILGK

In test [3] the target is Human Integrin α2β1 heterodimer with human c-Jun and human c-Fos (human) (UniProt P17301+P05556).
For test [4], the target named is T2, Desmocollin-3 complete extracellular region, biotinylated (Dsc3-ATH) (human). The source holds these as a separate data set.
Test [5] deals with E-cadherin complete extracellular region, biotinylated (Ecad-ATH) (UniProt F1PAA9).

B1: Recombinant human CAR-FC, P78310 20-237 (Fc fusion)
chain: T1 chain
Take B1: the binding entry in test [1] is on record as “binds”.

B2: E-cadherin complete extracellular region, biotinylated (Ecad-ATH) (domain or fragment)
chain: DWVIPPISCPENEKGPFPKNLVQIKSNRDKEIKVFYSITGQGADAPPVGVFIIERETGWLKVTEPLDREQIAKYILYSHAVSSNGNAVEDPMEIVITVTDQNDNKPEFTQAVFQGSVTEGALPGTSVMQVTATDADDDVNTYNAAIAYSILTQDPLLPSSMMFTINKDTGVISVLTTGLDREGVPMYTLVVQAADLQGEGLTTTATAVITVTDINDNPPIFNPTTYQGRVPENKANVEIAVLKVTDADVPDTPAWRAVYTILNNNNDQFVVTTDPVTNDGILKTTKGLDFEDKQQYVLYVTVVNVTPFEVILSTSTATVTVDVEDVNEAPIFIPCPKVVSIPEDFGVGQEITSYTAEDPDTYMEQRITYRIWRDAAGWLEVNPESGAIFTRAELDREDFEHVKNSTYEALIIAIDNGSPVATGTGTLLLVLSDVNDNGPIPEPRNMDFCQKNPQPHVINIIDPDLPPNTSPFTAELTHGASVNWTIEYNDPARESLILKPKKTLELGDYKINLKLTDNQNKDQVTTLDVFVCDCEGVVNSCKRTAPYAEAGLQVPA
modifications: biotin on the Avi-tag (BirA enzyme)
For B2, the binding entry in test [2], in test [3], in test [4] and in test [5] was “binds” in each case.
